# The list shows a part of the results. Repeats in this data set agree poorly, so a single value says little.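 The human kidney-derived cells carry a stably integrated construct of eight TEAD-binding elements driving luciferase, read by luminescence in a drug-repurposing library screen. A compound counts as a hit when its signal is more than five robust Z scores above the plate mean.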
# System: HEK293A TEAD-LUC reporter
# Assay: TEAD-luciferase reporter activity (YAP activation), robust Z score vs plate; higher = stronger YAP/TEAD activation
# Details: 24 h
SMILES,TEAD-luciferase reporter activity (compound concentration: 200 nM),TEAD-luciferase reporter activity (compound concentration: 2 uM),TEAD-luciferase reporter activity (compound concentration: 10 uM)
N=C(N)NC(=O)c1cc2c(Cl)cccc2n1CCCS(=O)(=O)O,inactive: -0.496,inactive: -0.879,inactive: 0.947
CC1CC(OC(=O)C(OC(=O)c2cccnc2)c2ccccc2)CC(C)(C)C1 (stereo not drawn) [Micinicate],inactive: 1.47,inactive: -0.862,inactive: -0.464
N=C1N[C@H]2[C@H](CS[C@H]2CCCCC(=O)O)N1 [2-Iminobiotin],inactive: -0.299,,inactive: -0.0511
CCc1cc(OCc2ccc(-c3ccccc3-c3nnn[nH]3)cc2)c2c(n1)CCCC2,inactive: 1.64,inactive: -0.924,inactive: 4.33
CC[C@H]1C(=O)Nc2ccc(F)cc2N1C(=O)OC(C)C [Opaviraline],inactive: 0.718,inactive: -1.85,inactive: -0.488
CN(C)CCC1CCc2cc(OCc3ccc(-c4ccccc4)cc3)ccc2C1 (stereo not drawn),inactive: -1.21,inactive: -0.192,inactive: 3.64
Cc1c(O)c(=O)ccn1C,inactive: 1.6,,inactive: -0.37
Cc1c(O)c(=O)ccn1C [deferiprone extended-release],,inactive: -0.141,
CC(C)C[C@H](NP(=O)(O)OCC(O)CO)C(=O)N[C@@H](Cc1c[nH]c2ccccc12)C(=O)O (stereo partly drawn),inactive: -0.146,inactive: -0.604,inactive: 1.13
Cn1c(Cn2ccc(C(F)(F)F)c(Oc3cc(Cl)cc(C#N)c3)c2=O)n[nH]c1=O,inactive: 1.22,inactive: -0.995,inactive: 2.12
NC[C@H]1CC[C@H](C(=O)c2ccc(CCC(=O)O)cc2)CC1 [rotraxate],,inactive: 0.108,
NC[C@H]1CC[C@H](C(=O)c2ccc(CCC(=O)O)cc2)CC1,inactive: -2.49,,inactive: 1.64
CN/C(=N\c1ccc(C2=NNC(=O)CC2C)cc1)NC#N (stereo not drawn) [Siguazodan],inactive: 1.08,inactive: -0.0485,inactive: -1.95
CC(C)n1c(/C=C/[C@@H]2C[C@@H](O)CC(=O)O2)c(-c2ccc(F)cc2)c2ccccc2c1=O,inactive: 1.59,inactive: 1.47,inactive: -1.24
CC(=O)N[C@H](Cc1ccc2ccccc2c1)C(=O)N[C@H](Cc1ccc(Cl)cc1)C(=O)N[C@H](Cc1cccnc1)C(=O)N[C@@H](CO)C(=O)N[C@@H](Cc1ccc(O)cc1)C(=O)N[C@H](CCCNC(N)=O)C(=O)N[C@@H](CC(C)C)C(=O)N[C@@H](CCCNC(=N)N)C(=O)N1CCC[C@H]1C(=O)N[C@H](C)C(N)=O [cetrorelix acetate],inactive: 0.0683,inactive: -1.09,inactive: -1.32

# Looked up one by one from the entries so far (two):
SMILES,TEAD-luciferase reporter activity (compound concentration: 200 nM),TEAD-luciferase reporter activity (compound concentration: 2 uM),TEAD-luciferase reporter activity (compound concentration: 10 uM)
N=C(N)NC(=O)c1cc2c(Cl)cccc2n1CCCS(=O)(=O)O,inactive: -0.496,inactive: -0.879,inactive: 0.947
Cc1c(O)c(=O)ccn1C [deferiprone extended-release],,inactive: -0.141,
